Data as given in PubChem BioAssay AID686937 (Drosophila RNAi Screening Center, 2013).
In all, the deposit lists about 23,000 reagents; shown is an unselected part of those with a known target gene and a result. 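Reduced-secretion tags in replicate 1 do not always agree with the z-scores; no criterion for assigning the tags was given.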 A plus sign joins genes that one reagent is predicted to hit. Not all columns of the deposit are shown. Not given: the amount of reagent.

Assay: 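Genes whose loss weakens secretory pathway function in fly cells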 (primary screen)
System: Drosophila S2 cells expressing secreted horseradish peroxidase
Reagent: long dsRNA against Drosophila genes
Timing: about 5.5 days (5 days dsRNA, then 12 h reporter induction)
Conditions: reporter expression induced after 5 days of dsRNA, read 12 h later; inducer not stated
Detection: 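Chemiluminescent measurement of peroxidase in the medium 12 h after reporter induction, following 5 days of dsRNA, given as a z-score per plate; higher means more secretion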
Direction: z-score: higher = more reporter secreted into medium

z-score, replicate 1, by gene and reagent
His3:CG33818 + His3:CG33857 + His3:CG33806 + 20 more: DRSC21267 -1.66
CG11313: DRSC14295 0.31
ItgaPS5: DRSC04501 0.01
Sap47: DRSC16850 0.43
Osi1: DRSC12271 0.45
CG14434: DRSC17927 0.27
CG4627: DRSC06873 -0.05
CG5500: DRSC15820 0.07
mRpL15: DRSC11771 0.01
CG12992: DRSC19512 0.17
HmgZ: DRSC03888 -0.29; DRSC04620 0.01
CG34040: DRSC03902 -0.32
Syngr: DRSC06003 -0.2
pasi1: DRSC16299 0.36; DRSC22385 0.04
trus: DRSC15772 -0.08
Mhc: DRSC03367 -0.07
CG11529: DRSC09839 -0.1
beat-Va: DRSC14192 -0.1
Fatp (retired record): DRSC03054 0.23
TTLL1B: DRSC08594 0.17
frac: DRSC10867 0.53
CG12479: DRSC19459 0.35
Krn: DRSC11202 0.46
Nthl1: DRSC03183 0.25
Hsl: DRSC06028 0.16
Or47b: DRSC07492 0.37
RpL22-like: DRSC04582 0.04
CG14441: DRSC17934 0.02
CG43759: DRSC19464 0.3; DRSC19543 0.22
CG32483: DRSC07902 0.46
CG12009: DRSC08217 0.41
ND-30: DRSC08243 -0.34
CG34195: DRSC06909 0.16

Reformatted: results already given
CG11529 [DRSC09839]
- z-score, replicate 1: -0.1

beat-Va [DRSC14192]
- z-score, replicate 1: -0.1

Fatp (retired record) [DRSC03054]
- z-score, replicate 1: 0.23

TTLL1B [DRSC08594]
- z-score, replicate 1: 0.17

Further reagents follow:
z-score, replicate 1, by gene and reagent
SRPK: DRSC07090 0.21
Xxylt: DRSC04107 0.14
eIF2Balpha: DRSC16332 0.22
CG33012: DRSC06287 0.41; DRSC06288 0.35
CG16756: DRSC18115 0.56
CG9674: DRSC11088 0.36; DRSC11089 0.09
CG43089: DRSC08060 0.24
Ccdc114: DRSC15025 0.42
CG3505: DRSC15489 0.3
CG15211: DRSC19657 0.19
Dyrk2: DRSC03610 0.15
Mink: DRSC14291 0.24
lute: DRSC14812 0.27; DRSC15769 0.17
Sfxn2: DRSC10718 0.34
CG17470: DRSC02621 -7.51
CG13230: DRSC06350 0.29
CG14017: DRSC02348 -0.29
CG14422: DRSC17919 0.37
CG2898: DRSC18238 0.4
CG4198: DRSC18354 0.42
Pten: DRSC03402 0.32
sws: DRSC18843 0.55
Mdr49: DRSC07466 0.03
CG15209: DRSC19655 0.51
CG2127: DRSC06821 0.31
CG31515: DRSC13610 0.47
robo1: DRSC04712 0.2
Idgf5: DRSC06919 -0.65
Pus10: DRSC00629 0.33
CG33120: DRSC02073 0.23
Prdm13: DRSC09970 0.4
C15: DRSC13495 0.28; DRSC14169 -1.59
CR43087 + CR43086 + CG34002: DRSC11953 0.66
CG2931: DRSC12324 0.29
aust: DRSC02558 0.27
Synd: DRSC15116 0.34
blw: DRSC04675 -0.96
CG12522: DRSC09088 -0.04
CG33468: DRSC22940 -0.91
CG31459: DRSC13380 0.11
CG9240: DRSC20177 0.35
CG42264: DRSC18074 0.25; DRSC18075 0.39
RpL18A: DRSC07538 -4.61
cype: DRSC02356 -0.7
CG33341: DRSC22887 0.1
CG32371: DRSC22209 -0.07
CG34375: DRSC14684 0.28; DRSC14685 0.36
CG7601: DRSC14131 0.51
CG6763: DRSC16110 0.25
CG6983: DRSC10757 0.26
PPO3: DRSC04325 0.3
Pxt: DRSC17040 -0.07
Asx: DRSC05924 -1.25
Spn42Db: DRSC05009 0.31
ATPsynbeta: DRSC17194 -0.6
HLH3B: DRSC18669 0.2
Cht4: DRSC04603 0.2
CG13561: DRSC04199 0.24
Or2a: DRSC18690 -0.07
ste24b: DRSC07315 0.08
yellow-h: DRSC17141 0.36
CG9961: DRSC00738 -0.08
